No constants are given. Whether binding was seen depends on the method and setting. In cells and extracts the contact can be indirect. Some binding calls cover weakened binding; strength is not graded here.
How the values were obtained:
[1] = molecular target: GST-RSV-N (RSV nucleoprotein from pCDNA3.1-GST-RSV-N) (human respiratory syncytial virus) (UniProt P03418); assay: co-IP; HEK293T cells cotransfected with three RSV plasmids (RSV-N, RSV-P, RSV-M2-1) and Myc-cypA or Myc-cypA-R55A plasmid
[2] = molecular target: Myc-cypA-R55A (from pCDNA3.1-Myc-cypA-R55A) (UniProt P62937); assay: co-IP; two plasmids cotransfected into HEK293T cells; Pierce classic magnetic IP/co-IP kit, Western blot

Sequences of proteins named here, by UniProt entry; tags and fusion partners are left off. A change or cut given only in a name is not applied to a line headed by its entry.
UniProt P03418: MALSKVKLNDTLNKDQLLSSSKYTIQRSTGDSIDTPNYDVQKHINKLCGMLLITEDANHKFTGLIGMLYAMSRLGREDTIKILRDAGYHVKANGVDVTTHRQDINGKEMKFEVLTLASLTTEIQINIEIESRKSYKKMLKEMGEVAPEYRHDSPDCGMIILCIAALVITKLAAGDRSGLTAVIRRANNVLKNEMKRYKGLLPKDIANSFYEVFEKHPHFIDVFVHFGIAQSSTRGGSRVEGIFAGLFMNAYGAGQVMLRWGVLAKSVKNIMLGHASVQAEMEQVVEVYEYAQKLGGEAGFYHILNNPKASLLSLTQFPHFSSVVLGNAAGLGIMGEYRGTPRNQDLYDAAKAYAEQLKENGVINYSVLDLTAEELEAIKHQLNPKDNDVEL
UniProt P62937: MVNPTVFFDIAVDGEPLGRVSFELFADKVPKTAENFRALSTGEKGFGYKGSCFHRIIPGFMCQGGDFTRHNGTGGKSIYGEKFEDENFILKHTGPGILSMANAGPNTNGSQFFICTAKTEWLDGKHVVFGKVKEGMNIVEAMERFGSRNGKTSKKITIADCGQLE
UniProt P03421: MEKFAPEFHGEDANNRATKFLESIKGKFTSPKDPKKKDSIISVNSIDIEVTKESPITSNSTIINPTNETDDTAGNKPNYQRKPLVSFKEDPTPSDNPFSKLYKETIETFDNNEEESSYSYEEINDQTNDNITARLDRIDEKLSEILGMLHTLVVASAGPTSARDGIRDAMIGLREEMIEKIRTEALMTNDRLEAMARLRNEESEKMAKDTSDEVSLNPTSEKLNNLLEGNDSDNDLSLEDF

Substance	binding [1]	binding [2]
HA-RSV-P (RSV phosphoprotein from pCDNA3.1-HA-RSV-P) (from UniProt P03421 1-241)	binds	–
GST-RSV-N (RSV nucleoprotein from pCDNA3.1-GST-RSV-N) (from UniProt P03418 1-391)	–	no binding

From PMC8274602
